Source: the supplement of paper PMC10849652
The list shows a part of the results.

Chains of the proteins cited; added tags and fusions are not shown. Lines headed by an entry give the natural chain unless they say otherwise; changes in a name come on top.
UniProt P35250, whole entry, looked up: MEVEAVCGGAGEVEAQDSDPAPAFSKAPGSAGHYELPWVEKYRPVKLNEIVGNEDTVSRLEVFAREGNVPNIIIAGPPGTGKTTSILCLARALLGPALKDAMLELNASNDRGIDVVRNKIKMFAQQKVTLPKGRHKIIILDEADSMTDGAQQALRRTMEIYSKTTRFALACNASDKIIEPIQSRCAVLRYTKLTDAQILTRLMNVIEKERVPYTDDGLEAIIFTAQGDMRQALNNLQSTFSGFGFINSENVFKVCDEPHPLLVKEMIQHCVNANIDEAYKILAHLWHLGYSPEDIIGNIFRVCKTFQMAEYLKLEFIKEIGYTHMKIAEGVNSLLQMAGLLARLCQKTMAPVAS
UniProt Q63HN8: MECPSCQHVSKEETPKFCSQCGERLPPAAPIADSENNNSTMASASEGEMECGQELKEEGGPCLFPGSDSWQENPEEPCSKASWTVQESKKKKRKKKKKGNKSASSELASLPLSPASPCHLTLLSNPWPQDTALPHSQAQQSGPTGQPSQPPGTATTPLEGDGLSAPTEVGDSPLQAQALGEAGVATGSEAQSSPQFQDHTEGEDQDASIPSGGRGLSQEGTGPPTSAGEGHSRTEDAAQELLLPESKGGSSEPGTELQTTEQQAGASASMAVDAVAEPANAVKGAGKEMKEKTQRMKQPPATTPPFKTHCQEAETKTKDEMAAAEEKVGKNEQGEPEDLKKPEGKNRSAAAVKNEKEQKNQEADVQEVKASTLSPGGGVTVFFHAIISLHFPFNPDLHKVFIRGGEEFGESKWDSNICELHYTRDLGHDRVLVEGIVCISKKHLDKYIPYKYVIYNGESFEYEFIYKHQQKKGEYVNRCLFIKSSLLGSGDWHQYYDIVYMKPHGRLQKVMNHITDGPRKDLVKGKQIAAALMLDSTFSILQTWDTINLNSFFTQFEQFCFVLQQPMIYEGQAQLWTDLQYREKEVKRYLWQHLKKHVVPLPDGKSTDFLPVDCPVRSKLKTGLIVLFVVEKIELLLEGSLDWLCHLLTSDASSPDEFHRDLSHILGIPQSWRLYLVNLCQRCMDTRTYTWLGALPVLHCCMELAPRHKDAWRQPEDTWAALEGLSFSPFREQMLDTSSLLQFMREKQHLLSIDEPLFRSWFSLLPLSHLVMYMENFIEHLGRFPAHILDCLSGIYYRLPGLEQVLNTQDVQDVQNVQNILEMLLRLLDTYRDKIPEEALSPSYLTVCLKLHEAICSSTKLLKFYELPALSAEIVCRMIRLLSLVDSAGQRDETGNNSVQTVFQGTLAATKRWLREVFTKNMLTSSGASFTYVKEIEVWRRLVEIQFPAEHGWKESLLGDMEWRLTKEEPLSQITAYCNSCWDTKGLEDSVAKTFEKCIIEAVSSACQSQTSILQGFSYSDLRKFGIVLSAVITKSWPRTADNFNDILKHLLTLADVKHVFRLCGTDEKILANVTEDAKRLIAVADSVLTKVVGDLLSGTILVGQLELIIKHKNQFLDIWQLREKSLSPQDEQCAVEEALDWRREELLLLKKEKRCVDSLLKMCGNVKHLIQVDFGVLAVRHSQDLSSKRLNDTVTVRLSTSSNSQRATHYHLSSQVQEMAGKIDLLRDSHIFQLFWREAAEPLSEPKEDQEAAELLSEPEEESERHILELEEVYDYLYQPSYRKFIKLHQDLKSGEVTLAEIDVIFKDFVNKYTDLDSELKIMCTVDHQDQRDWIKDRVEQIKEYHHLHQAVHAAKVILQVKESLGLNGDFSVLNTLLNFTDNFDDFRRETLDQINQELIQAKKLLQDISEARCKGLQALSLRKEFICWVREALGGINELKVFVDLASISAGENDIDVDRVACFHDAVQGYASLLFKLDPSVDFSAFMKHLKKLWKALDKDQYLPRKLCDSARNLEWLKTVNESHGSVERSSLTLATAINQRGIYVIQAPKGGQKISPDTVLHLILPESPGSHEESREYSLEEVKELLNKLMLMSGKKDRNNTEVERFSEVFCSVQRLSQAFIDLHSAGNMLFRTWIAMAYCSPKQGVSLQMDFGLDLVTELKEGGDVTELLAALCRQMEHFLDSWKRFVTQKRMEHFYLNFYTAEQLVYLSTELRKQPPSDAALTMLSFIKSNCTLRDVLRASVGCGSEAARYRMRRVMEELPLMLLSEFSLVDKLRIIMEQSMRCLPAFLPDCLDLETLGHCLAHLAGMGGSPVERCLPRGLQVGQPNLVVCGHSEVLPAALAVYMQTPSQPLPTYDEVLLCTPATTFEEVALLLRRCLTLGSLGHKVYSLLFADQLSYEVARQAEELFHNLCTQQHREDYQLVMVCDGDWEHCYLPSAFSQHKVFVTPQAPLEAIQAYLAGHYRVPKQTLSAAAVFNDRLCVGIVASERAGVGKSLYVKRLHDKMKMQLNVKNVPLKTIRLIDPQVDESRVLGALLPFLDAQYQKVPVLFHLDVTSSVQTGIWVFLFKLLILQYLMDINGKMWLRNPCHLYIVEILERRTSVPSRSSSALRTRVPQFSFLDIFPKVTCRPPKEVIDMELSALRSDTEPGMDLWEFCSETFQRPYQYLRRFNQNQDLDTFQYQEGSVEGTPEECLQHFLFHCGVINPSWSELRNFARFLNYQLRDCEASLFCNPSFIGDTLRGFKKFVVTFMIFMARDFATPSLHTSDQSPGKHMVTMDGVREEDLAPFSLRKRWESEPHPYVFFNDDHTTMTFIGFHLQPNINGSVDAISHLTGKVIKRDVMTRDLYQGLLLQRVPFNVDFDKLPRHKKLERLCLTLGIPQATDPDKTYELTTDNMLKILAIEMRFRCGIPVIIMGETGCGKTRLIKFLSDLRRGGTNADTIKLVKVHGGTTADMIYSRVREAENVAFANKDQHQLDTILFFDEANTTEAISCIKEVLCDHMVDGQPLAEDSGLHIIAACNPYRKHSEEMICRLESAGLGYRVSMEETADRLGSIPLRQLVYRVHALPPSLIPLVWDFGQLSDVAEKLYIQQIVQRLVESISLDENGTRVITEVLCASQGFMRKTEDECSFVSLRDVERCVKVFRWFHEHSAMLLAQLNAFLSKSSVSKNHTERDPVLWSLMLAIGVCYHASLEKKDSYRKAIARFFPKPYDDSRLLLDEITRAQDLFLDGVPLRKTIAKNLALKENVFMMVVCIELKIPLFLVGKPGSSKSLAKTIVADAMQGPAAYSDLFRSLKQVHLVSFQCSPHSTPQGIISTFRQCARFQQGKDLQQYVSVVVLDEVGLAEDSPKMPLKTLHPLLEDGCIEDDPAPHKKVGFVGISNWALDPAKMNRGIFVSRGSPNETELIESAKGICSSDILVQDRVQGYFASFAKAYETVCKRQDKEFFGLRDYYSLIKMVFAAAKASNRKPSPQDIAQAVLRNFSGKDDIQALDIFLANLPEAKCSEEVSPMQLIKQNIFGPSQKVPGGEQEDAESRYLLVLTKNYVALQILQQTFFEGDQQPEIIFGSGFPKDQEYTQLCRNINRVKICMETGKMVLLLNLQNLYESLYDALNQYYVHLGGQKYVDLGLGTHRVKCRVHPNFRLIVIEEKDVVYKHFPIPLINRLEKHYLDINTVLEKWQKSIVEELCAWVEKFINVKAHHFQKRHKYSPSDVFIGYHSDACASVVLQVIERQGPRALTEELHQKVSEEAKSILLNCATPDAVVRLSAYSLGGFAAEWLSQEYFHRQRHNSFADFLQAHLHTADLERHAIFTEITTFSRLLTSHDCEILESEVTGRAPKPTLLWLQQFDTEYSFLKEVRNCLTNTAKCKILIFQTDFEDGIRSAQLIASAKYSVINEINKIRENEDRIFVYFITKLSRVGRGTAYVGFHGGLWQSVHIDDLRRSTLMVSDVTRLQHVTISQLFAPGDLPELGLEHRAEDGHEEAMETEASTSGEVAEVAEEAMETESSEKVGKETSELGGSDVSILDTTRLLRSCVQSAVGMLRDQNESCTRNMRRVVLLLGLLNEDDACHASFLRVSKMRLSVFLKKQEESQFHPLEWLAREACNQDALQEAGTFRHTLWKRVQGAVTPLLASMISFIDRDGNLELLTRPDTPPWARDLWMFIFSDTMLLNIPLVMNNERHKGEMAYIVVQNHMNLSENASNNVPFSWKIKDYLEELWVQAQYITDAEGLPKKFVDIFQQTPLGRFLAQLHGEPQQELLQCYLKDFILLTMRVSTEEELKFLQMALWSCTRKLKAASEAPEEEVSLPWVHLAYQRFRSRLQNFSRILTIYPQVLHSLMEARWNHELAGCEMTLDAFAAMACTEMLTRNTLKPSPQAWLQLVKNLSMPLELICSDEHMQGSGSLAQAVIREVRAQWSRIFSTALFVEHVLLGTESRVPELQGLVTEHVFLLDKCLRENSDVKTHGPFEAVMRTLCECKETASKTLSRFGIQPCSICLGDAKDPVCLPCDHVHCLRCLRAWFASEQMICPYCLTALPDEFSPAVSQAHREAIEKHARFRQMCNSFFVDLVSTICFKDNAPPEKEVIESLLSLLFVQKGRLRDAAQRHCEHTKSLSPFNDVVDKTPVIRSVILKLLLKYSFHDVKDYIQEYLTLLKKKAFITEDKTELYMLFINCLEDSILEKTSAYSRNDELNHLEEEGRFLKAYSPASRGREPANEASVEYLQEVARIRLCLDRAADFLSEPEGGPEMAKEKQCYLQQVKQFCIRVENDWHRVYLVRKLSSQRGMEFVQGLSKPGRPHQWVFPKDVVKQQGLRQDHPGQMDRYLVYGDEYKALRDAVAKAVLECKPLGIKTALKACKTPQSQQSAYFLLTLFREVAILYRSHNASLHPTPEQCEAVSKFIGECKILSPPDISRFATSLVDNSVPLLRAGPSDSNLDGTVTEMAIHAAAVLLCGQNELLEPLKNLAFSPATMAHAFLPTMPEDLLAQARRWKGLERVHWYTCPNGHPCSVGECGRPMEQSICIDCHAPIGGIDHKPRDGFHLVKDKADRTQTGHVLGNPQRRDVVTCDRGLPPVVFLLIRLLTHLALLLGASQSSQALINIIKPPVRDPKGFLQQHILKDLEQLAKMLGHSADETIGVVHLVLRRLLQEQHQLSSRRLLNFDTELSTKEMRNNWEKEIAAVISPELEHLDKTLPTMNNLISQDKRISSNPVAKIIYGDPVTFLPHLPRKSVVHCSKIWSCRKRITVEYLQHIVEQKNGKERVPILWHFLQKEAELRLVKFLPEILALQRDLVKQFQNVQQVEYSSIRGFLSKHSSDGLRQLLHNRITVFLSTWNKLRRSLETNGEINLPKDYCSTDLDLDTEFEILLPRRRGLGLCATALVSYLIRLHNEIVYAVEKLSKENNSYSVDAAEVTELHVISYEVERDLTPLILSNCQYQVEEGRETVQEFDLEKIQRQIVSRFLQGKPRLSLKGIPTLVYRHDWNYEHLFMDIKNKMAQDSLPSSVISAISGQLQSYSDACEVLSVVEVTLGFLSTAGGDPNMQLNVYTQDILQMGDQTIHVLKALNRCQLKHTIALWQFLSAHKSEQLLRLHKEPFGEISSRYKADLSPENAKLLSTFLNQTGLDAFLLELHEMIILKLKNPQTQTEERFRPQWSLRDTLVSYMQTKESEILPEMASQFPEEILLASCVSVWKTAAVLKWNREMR
UniProt Q8IUF8: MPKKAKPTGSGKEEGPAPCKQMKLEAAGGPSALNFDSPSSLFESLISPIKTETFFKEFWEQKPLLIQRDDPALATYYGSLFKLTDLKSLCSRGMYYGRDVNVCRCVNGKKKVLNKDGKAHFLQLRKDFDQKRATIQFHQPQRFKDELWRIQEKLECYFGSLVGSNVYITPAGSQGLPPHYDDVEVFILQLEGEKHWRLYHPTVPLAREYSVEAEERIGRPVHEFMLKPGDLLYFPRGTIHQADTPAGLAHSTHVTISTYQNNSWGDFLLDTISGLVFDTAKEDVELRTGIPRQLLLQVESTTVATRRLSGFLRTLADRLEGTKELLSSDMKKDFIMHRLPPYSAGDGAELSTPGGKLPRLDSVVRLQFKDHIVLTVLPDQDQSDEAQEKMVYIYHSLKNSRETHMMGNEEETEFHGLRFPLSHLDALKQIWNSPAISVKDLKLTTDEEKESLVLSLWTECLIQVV
UniProt Q96E14: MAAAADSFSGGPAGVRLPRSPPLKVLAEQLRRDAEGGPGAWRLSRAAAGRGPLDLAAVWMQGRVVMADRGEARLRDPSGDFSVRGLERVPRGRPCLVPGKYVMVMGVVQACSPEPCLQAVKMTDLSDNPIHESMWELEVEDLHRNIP
UniProt Q99496: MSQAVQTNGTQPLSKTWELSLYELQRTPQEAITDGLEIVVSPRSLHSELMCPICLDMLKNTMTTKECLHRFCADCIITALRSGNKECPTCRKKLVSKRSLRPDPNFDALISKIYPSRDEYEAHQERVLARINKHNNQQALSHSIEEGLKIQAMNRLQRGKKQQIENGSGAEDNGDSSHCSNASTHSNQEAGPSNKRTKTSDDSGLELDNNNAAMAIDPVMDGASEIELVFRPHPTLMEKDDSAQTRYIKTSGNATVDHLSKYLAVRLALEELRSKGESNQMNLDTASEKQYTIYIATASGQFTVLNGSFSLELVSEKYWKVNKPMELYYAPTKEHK

Tests used:
Assay in all cases: log2 fold change, soluble protein after heating vs DMSO (PISA); higher = thermal stabilisation; K562 cells, 10 uM, 30 min; active = over 0.2 and 3.5 SD of the protein, either way, in both replicates (recomputed)
saracatinib = compound: CN1CCN(CCOc2cc(OC3CCOCC3)c3c(Nc4c(Cl)ccc5c4OCO5)ncnc3c2)CC1 [saracatinib]
In short: (§1)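 Values are thermal stability changes relative to control samples and are taken from duplicates. They are stated as log2 fold changes. Before quantification by TMTpro 16plex LC-MS/MS with equalised channel sums, K562 cells at 2×10^6 cells/mL were treated with 10 μM compound for 30 min, heated in aliquots for 3 min across 48°C-58°C, pooled, extracted in PBS with 0.5% NP-40 at 4°C, and centrifuged at 21,000xg for 90 min to give the soluble supernatant.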

sotrastaurin = compound: CN1CCN(c2nc(C3=C(c4c[nH]c5ccccc45)C(=O)NC3=O)c3ccccc3n2)CC1 [sotrastaurin]
In short: as §1

alvocidib = compound: CN1CC[C@H](c2c(O)cc(O)c3c(=O)cc(-c4ccccc4Cl)oc23)[C@H](O)C1 [alvocidib]
In short: as §1

Tubastatin A = compound: CN1CCc2c(c3ccccc3n2Cc2ccc(C(=O)NO)cc2)C1 [Tubastatin A]
In short: as §1

defactinib = compound: CNC(=O)c1ccc(Nc2ncc(C(F)(F)F)c(NCc3nccnc3N(C)S(C)(=O)=O)n2)cc1 [defactinib]
In short: as §1

rucaparib = compound: CNCc1ccc(-c2[nH]c3cc(F)cc4c3c2CCNC4=O)cc1 [rucaparib]
In short: as §1

[1] = compound: CNc1nc(-c2ccc3c(N)n[nH]c3c2)cc(N2C[C@@H](C(=O)NC3CCCCC3)CC[C@H]2C)n1
In short: as §1

encorafenib = compound: COC(=O)N[C@@H](C)CNc1nccc(-c2cn(C(C)C)nc2-c2cc(Cl)cc(NS(C)(=O)=O)c2F)n1 [encorafenib]
In short: as §1

[2] = compound: COC(=O)[C@H](CCSC)NC(=O)C1=C(C=C(C=C1)NC[C@H](CS)N)C2=CC=CC=C2
In short: as §1

filanesib = compound: CON(C)C(=O)N1N=C(c2cc(F)ccc2F)S[C@@]1(CCCN)c1ccccc1 [filanesib]
In short: as §1

zotarolimus = compound: CO[C@H]1C[C@@H]2CC[C@@H](C)[C@@](O)(O2)C(=O)C(=O)N2CCCC[C@H]2C(=O)O[C@H]([C@H](C)C[C@@H]2CC[C@H](n3cnnn3)[C@H](OC)C2)CC(=O)[C@H](C)/C=C(\C)[C@@H](O)[C@@H](OC)C(=O)[C@H](C)C[C@H](C)/C=C/C=C/C=C/1C [zotarolimus]
In short: as §1

idasanutlin = compound: COc1cc(C(=O)O)ccc1NC(=O)[C@@H]1N[C@@H](CC(C)(C)C)[C@](C#N)(c2ccc(Cl)cc2F)[C@H]1c1cccc(Cl)c1F [idasanutlin]
In short: as §1

[3] = compound: COc1cc2nc(-c3cc(F)ccc3O)nc(N[C@@H]3CNC[C@H]3C(C)(C)O)c2cc1OC
In short: as §1

lapatinib = compound: CS(=O)(=O)CCNCc1ccc(-c2ccc3ncnc(Nc4ccc(OCc5cccc(F)c5)c(Cl)c4)c3c2)o1 [lapatinib]
In short: as §1

pictilisib = compound: CS(=O)(=O)N1CCN(Cc2cc3nc(-c4cccc5[nH]ncc45)nc(N4CCOCC4)c3s2)CC1 [pictilisib]
In short: as §1

[4] = compound: CNC(=O)C1=CC=CC=C1NC2=NC(=NC=C2Cl)NC3=C(C=C(C=C3)N4CCOCC4)OC
In short: as §1

[5] = compound: COC1=CC=C(C=C1)CN2C=CC3=C2C=C(C=C3)C(=O)NO
In short: as §1

alisertib = compound: COc1cc(Nc2ncc3c(n2)-c2ccc(Cl)cc2C(c2c(F)cccc2OC)=NC3)ccc1C(=O)O [alisertib]
In short: as §1

gefitinib = compound: COc1cc2ncnc(Nc3ccc(F)c(Cl)c3)c2cc1OCCCN1CCOCC1 [gefitinib]
In short: as §1

[6] = compound: COc1cccc2cc(-c3nc([C@H]4CC[C@H](C(=O)O)CC4)n4ncnc(N)c34)[nH]c12
In short: as §1

Measured: log2 fold change

RLIM (UniProt Q9NVW2)
inactive: saracatinib -0.12 | sotrastaurin 0.001 | alvocidib 0.023 | Tubastatin A 0.337 | defactinib 0.041 | rucaparib -0.174 | [1] 0.018 | encorafenib -0.102 | [2] 0.122 | filanesib 0.153 | zotarolimus -0.062 | idasanutlin -0.132 | [3] 0.299 | lapatinib -0.161 | pictilisib 0.342

RHBDD1 (UniProt Q8TEB9)
inactive: saracatinib 0.028 | sotrastaurin -0.026 | alvocidib -0.005 | [4] -0.026 | defactinib -0.164 | rucaparib 0.098 | [1] -0.043 | encorafenib 0.024 | [2] 0.18 | [5] -0.034 | filanesib 0.014 | zotarolimus 0.024 | alisertib 0.088 | [3] -0.115 | gefitinib -0.119 | [6] -0.155 | lapatinib -0.019 | pictilisib 0.098

RIF1 (UniProt Q5UIP0)
inactive: saracatinib -0.028 | sotrastaurin -0.248 | alvocidib 0.09 | Tubastatin A 0.078 | [4] 0.095 | defactinib -0.366 | rucaparib 0.041 | [1] 0.021 | encorafenib -0.163 | [2] -0.205 | filanesib -0.114 | zotarolimus -0.214 | [3] 0.051 | gefitinib 0.023 | lapatinib -0.049 | pictilisib 0.051

RCC2 (UniProt Q9P258)
inactive: saracatinib -0.001 | sotrastaurin 0.003 | alvocidib -0.06 | Tubastatin A 0.002 | [4] 0.127 | defactinib -0.022 | rucaparib -0.018 | [1] -0.004 | encorafenib -0.002 | [2] -0.004 | [5] -0.006 | filanesib -0.07 | zotarolimus 0.022 | idasanutlin -0.057 | alisertib -0.04 | [3] 0.035 | gefitinib 0.04 | [6] 0.004 | lapatinib -0.015 | pictilisib 0.059

RFC2 (UniProt P35250)
inactive: saracatinib 0.001 | sotrastaurin 0.004 | alvocidib -0.047 | Tubastatin A -0.037 | [4] -0.049 | defactinib -0.035 | rucaparib 0.004 | [1] 0.014 | encorafenib 0.006 | [2] 0.021 | [5] 0.05 | filanesib -0.04 | zotarolimus 0.029 | idasanutlin -0.046 | alisertib -0.028 | [3] -0.004 | gefitinib -0.032 | [6] 0.026 | lapatinib -0.012 | pictilisib -0.045

RILPL1 (UniProt Q5EBL4)
inactive: saracatinib -0.527 | sotrastaurin -0.131 | alvocidib 0.036 | Tubastatin A -0.032 | [4] -0.052 | defactinib 0.056 | rucaparib -0.191 | [1] 0.203 | encorafenib -0.034 | [2] -0.058 | [5] -0.046 | filanesib -0.005 | zotarolimus -0.085 | alisertib -0.003 | [6] -0.037

RHAG (UniProt Q02094)
inactive: saracatinib -0.021 | sotrastaurin -0.149 | alvocidib -0.011 | Tubastatin A 0.061 | [4] 0.07 | defactinib -0.049 | rucaparib -0.064 | [1] -0.021 | encorafenib 0.262 | [2] -0.027 | [5] 0.026 | filanesib -0.282 | zotarolimus -0.014 | idasanutlin -0.108 | alisertib 0.059 | [3] -0.21 | gefitinib -0.093 | [6] 0.085 | lapatinib 0.109 | pictilisib -0.106

RCC1 isoform 2 (UniProt P18754)
inactive: saracatinib -0.076 | sotrastaurin -0.049 | Tubastatin A 0.164 | [4] -0.083 | defactinib -0.224 | rucaparib -0.008 | [1] 0.146 | encorafenib 0.045 | [2] -0.07 | [5] 0.106 | filanesib -0.058 | zotarolimus 0.083 | idasanutlin 0 | alisertib 0.022 | [3] -0.038 | gefitinib 0.087 | [6] 0.021 | lapatinib 0 | pictilisib -0.005

Retrieved one by one from the entries so far, two records:
RHAG (UniProt Q02094)
inactive: saracatinib -0.021 | sotrastaurin -0.149 | alvocidib -0.011 | Tubastatin A 0.061 | [4] 0.07 | defactinib -0.049 | rucaparib -0.064 | [1] -0.021 | encorafenib 0.262 | [2] -0.027 | [5] 0.026 | filanesib -0.282 | zotarolimus -0.014 | idasanutlin -0.108 | alisertib 0.059 | [3] -0.21 | gefitinib -0.093 | [6] 0.085 | lapatinib 0.109 | pictilisib -0.106

RFC2 (UniProt P35250)
inactive: saracatinib 0.001 | sotrastaurin 0.004 | alvocidib -0.047 | Tubastatin A -0.037 | [4] -0.049 | defactinib -0.035 | rucaparib 0.004 | [1] 0.014 | encorafenib 0.006 | [2] 0.021 | [5] 0.05 | filanesib -0.04 | zotarolimus 0.029 | idasanutlin -0.046 | alisertib -0.028 | [3] -0.004 | gefitinib -0.032 | [6] 0.026 | lapatinib -0.012 | pictilisib -0.045

Further entries follow:

RNF126 (UniProt Q9BV68)
inactive: saracatinib 0.065 | sotrastaurin -0.003 | alvocidib -0.041 | Tubastatin A -0.029 | [4] 0.027 | defactinib -0.004 | rucaparib -0.01 | [1] -0.051 | encorafenib -0.025 | [2] 0.054 | [5] 0.034 | filanesib -0.02 | zotarolimus -0.08 | idasanutlin 0.042 | alisertib 0.039 | [3] 0.021 | gefitinib 0.034 | [6] 0.013 | lapatinib 0.078 | pictilisib -0.107

RNF213 isoform 4 (UniProt Q63HN8)
inactive: saracatinib -0.171 | sotrastaurin -0.071 | alvocidib 0.033 | Tubastatin A 0.033 | [4] -0.007 | defactinib -0.037 | rucaparib 0.288 | [1] -0.031 | encorafenib -0.075 | [2] 0.087 | [5] -0.084 | filanesib -0.062 | zotarolimus -0.083 | idasanutlin -0.238 | alisertib 0.111 | [3] -0.093 | gefitinib 0.071 | [6] 0.161 | lapatinib -0.081 | pictilisib -0.096

RIOX2 (UniProt Q8IUF8)
inactive: saracatinib 0.17 | sotrastaurin -0.057 | alvocidib -0.012 | Tubastatin A -0.124 | [4] 0.086 | defactinib 0.054 | [1] 0 | [2] 0.148 | [5] -0.344 | filanesib 0.024 | zotarolimus 0.072 | idasanutlin 0.021 | alisertib -0.064 | [3] 0.053 | gefitinib -0.056 | [6] -0.101 | lapatinib -0.045 | pictilisib 0.043

RC3H1 (UniProt Q5TC82)
inactive: saracatinib 0.026 | sotrastaurin -0.052 | alvocidib 0.013 | Tubastatin A 0.078 | [4] 0.018 | defactinib 0.097 | rucaparib 0.043 | [1] 0.007 | encorafenib -0.098 | [2] -0.035 | [5] -0.007 | filanesib 0 | zotarolimus -0.074 | idasanutlin -0.261 | alisertib 0.114 | [3] 0.116 | [6] -0.326 | lapatinib -0.027 | pictilisib -0.287

RCN1 (UniProt Q15293)
inactive: saracatinib -0.005 | sotrastaurin 0.042 | alvocidib 0.025 | Tubastatin A -0.01 | [4] -0.005 | defactinib -0.018 | rucaparib -0.014 | [1] -0.12 | encorafenib -0.021 | [2] 0.038 | [5] -0.051 | filanesib 0.003 | zotarolimus -0.051 | idasanutlin -0.012 | alisertib -0.002 | [3] 0.002 | gefitinib 0.014 | [6] 0.039 | lapatinib -0.036 | pictilisib -0.034

RMI2 (UniProt Q96E14)
inactive: saracatinib -0.119 | alvocidib -0.275 | Tubastatin A 0.032 | defactinib -0.019 | [1] 0.014 | [2] -0.139 | zotarolimus -0.028 | idasanutlin -0.092 | alisertib 0.088 | [3] 0.269 | [6] -0.088 | lapatinib 0.269

RNF2 (UniProt Q99496)
inactive: saracatinib 0.025 | sotrastaurin -0.105 | Tubastatin A 0.111 | [4] 0.091 | defactinib -0.029 | rucaparib -0.054 | [1] -0.059 | encorafenib 0.003 | [2] 0.1 | [5] -0.104 | filanesib 0.023 | zotarolimus 0 | idasanutlin -0.01 | alisertib -0.105 | [3] -0.04 | gefitinib 0.106 | [6] 0.039 | lapatinib 0.011 | pictilisib 0.099

RIPK1 (UniProt Q13546)
inactive: saracatinib -0.197 | sotrastaurin -0.208 | Tubastatin A 0.017 | [4] 0.191 | defactinib 0.028 | rucaparib 0.161 | [1] 0.212 | encorafenib 0.073 | [2] -0.097 | [5] 0 | filanesib 0.049 | zotarolimus 0.098 | idasanutlin 0.022 | alisertib -0.052 | [3] 0.032 | gefitinib 0.043 | [6] -0.214 | lapatinib 0.055 | pictilisib 0.027

RIC1 (UniProt Q4ADV7)
inactive: saracatinib -0.162 | sotrastaurin -0.107 | [4] -0.083 | defactinib 0.032 | rucaparib 0.05 | [1] -0.264 | encorafenib -0.11 | [2] 0.168 | [5] 0.172 | filanesib -0.147 | idasanutlin 0.009 | alisertib 0.06 | [3] -0.019 | gefitinib -0.061 | [6] 0.243 | lapatinib -0.015 | pictilisib 0.104
